{"source": "paper PMC6468270", "about": "(Chembiochem, 2019)", "note": "HELM strings list residues between dots; [ac] is acetyl, [am] amide, other brackets name non-standard units.", "data": [{"assay": "general procedure: Fmoc solid-phase peptide synthesis; Rink amide MBHA resin; HCTU or HATU (5 equiv) and DIPEA (5 equiv)", "conditions": "whole synthesis, 220 nm, scale of the general procedure 0.1 mmol", "units": {"purity (crude or final not stated)": "%"}, "values": [{"substance": "PEPTIDE1{[ac].G.A.M.G.K.D.I.Q.L.A.R.R.I.R.G.E.R.A.[am]}$$$$V2.0", "purity (crude or final not stated)": "> 97"}, {"substance": "PEPTIDE1{[ac].G.A.M.G.K.[PenGly].I.Q.L.[PenGly].R.R.I.R.G.E.R.A.G.C.A.[am]}$PEPTIDE1,PEPTIDE1,7:R3-11:R3$$$V2.0", "purity (crude or final not stated)": "> 90"}, {"substance": "PEPTIDE1{[ac].G.A.[PenGly].G.K.D.[PenGly].Q.L.A.R.R.I.R.G.E.R.A.[am]}$PEPTIDE1,PEPTIDE1,4:R3-8:R3$$$V2.0", "purity (crude or final not stated)": "> 90"}]}]}
